The list shows a part of the results. Repeats are few or missing, and single values can be far off.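 The apoptosis fraction was the count of cleaved-PARP antibody-stained nuclei relative to all DNA-stained nuclei, imaged in 1,536-well plates. Screening doses were set so most cells survived, and baseline and induced cleaved-PARP levels vary greatly across cell lines.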
Experiments:
Experiment in all cases: cleaved PARP positive nuclei fraction relative to DMSO control; melanoma cells; higher = more apoptosis
Conditions in all cases: library dose: low library concentration; 72 h
CBRC034 = test system: CBRC034 (line from a melanoma biopsy)
COLO792 = test system: COLO792
COLO800 = test system: COLO800
COLO829 = test system: COLO829
G361 = test system: G361
IPC-298 = test system: IPC-298
IST-MEL1 = test system: IST-MEL1
LB2518-MEL = test system: LB2518-MEL
LOXIMVI = test system: LOXIMVI
MZ2-MEL = test system: MZ2-MEL
MeWo = test system: MeWo
RPMI7951 = test system: RPMI7951
RVH-421 = test system: RVH-421
SkMel28 = test system: SkMel28
SkMel30 = test system: SkMel30
SkMel5 = test system: SkMel5
UACC257 = test system: UACC257
UACC62 = test system: UACC62

Row | Compound | cleaved PARP positive nuclei fraction (CBRC034) [%] | cleaved PARP positive nuclei fraction (COLO792) [%] | cleaved PARP positive nuclei fraction (COLO800) [%] | cleaved PARP positive nuclei fraction (COLO829) [%] | cleaved PARP positive nuclei fraction (G361) [%] | cleaved PARP positive nuclei fraction (IPC-298) [%] | cleaved PARP positive nuclei fraction (IST-MEL1) [%] | cleaved PARP positive nuclei fraction (LB2518-MEL) [%] | cleaved PARP positive nuclei fraction (LOXIMVI) [%] | cleaved PARP positive nuclei fraction (MZ2-MEL) [%] | cleaved PARP positive nuclei fraction (MeWo) [%] | cleaved PARP positive nuclei fraction (RPMI7951) [%] | cleaved PARP positive nuclei fraction (RVH-421) [%] | cleaved PARP positive nuclei fraction (SkMel28) [%] | cleaved PARP positive nuclei fraction (SkMel30) [%] | cleaved PARP positive nuclei fraction (SkMel5) [%] | cleaved PARP positive nuclei fraction (UACC257) [%] | cleaved PARP positive nuclei fraction (UACC62) [%]
1 | CN(C)S(=O)(=O)c1ccc2c(c1)/C(=C/c1cc3c([nH]1)CCCC3)C(=O)N2 + O=C1NC(=O)/C(=C/c2ccc(-c3ccc(F)cc3O)o2)S1 [AS252424] (first compound 0.4 µM, partner dose 1 µM) | 111 | 48 | 143 | 131 | 139 | 129 | 89 | 85.5 | 266 | 81.3 | 183 | 146 | 53.3 | 122 | 270 | 136 | 106 | 223
2 | COC(=O)c1sccc1S(=O)(=O)Nc1ccc(Nc2ccccc2)cc1OC + COc1cc(N2CCC(N3CCN(C)CC3)CC2)ccc1Nc1ncc(Cl)c(Nc2ccccc2S(=O)(=O)C(C)C)n1 [NVP-TAE684] (first compound 1 µM, partner dose 0.08 µM) | 58.6 | 124 | 98.9 | 129 | 112 | 197 | 78.5 | 85.3 | 106 | 116 | 28.7 | 89.3 | 32.8 | 244 | 16.4 | 76 | 191 | 184
3 | NCC(=O)Nc1ccc(-n2nc(C(F)(F)F)cc2-c2ccc3c(ccc4ccccc43)c2)cc1 + N#Cc1c(O)c2c(-c3ccc(-c4ccccc4O)cc3)csc2[nH]c1=O [A769662] (first compound 1 µM, partner dose 2 µM) | 68.7 | 158 | 172 | 114 | 173 | 46.3 | 32.9 | 83.3 | 290 | 50.8 | 242 | 85.1 | 106 | 78.9 | 874 | 153 | 154 | 308
4 | COc1cc2ncnc(Nc3ccc(Oc4ccccc4)cc3)c2cc1OC + Cn1cc(/C=C2\C(=O)Nc3cccnc32)c2ccccc21 [GW441756] (first compound 2 µM, partner dose 0.4 µM) | 83.4 | 22.8 | 102 | 50.8 | 63.7 | 140 | 58.8 | 58.1 | 113 | 93 | 83.3 | 77.9 | 54.6 | 84.9 | 21.2 | 175 | 184 | 126
5 | O=S(=O)(c1ccccc1)N(CC(F)(F)F)c1ccc(C(O)(C(F)(F)F)C(F)(F)F)cc1 + Cc1cc([N+](=O)[O-])ccc1NS(=O)(=O)c1cc(Cl)ccc1Cl [FH535] (first compound 1.4 µM, partner dose 1 µM) | 247 | 115 | 72.5 | 85.3 | 95.6 | 39.1 | 68 | 201 | 62.9 | 59.6 | 57.7 | 75.1 | 65.5 | 105 | 241 | 129 | 64.9 | 98
6 | O=C(O)C(=O)Nc1sc2c(c1C(=O)O)CCNC2 + O=c1cc(-c2cccc3c2Sc2ccccc2S3)oc(N2CCOCC2)c1 [KU55933] (first compound 1.66667 µM, partner dose 1 µM) | 168 | 57.3 | 112 | 84.7 | 19.7 | 111 | 40.3 | 72.1 | 2830 | 113 | 105 | 77.5 | 117 | 140 | 24.8 | 36.9 | 246 | 631
7 | O=C(O)C(=O)Nc1sc2c(c1C(=O)O)CCNC2 + Oc1nc(-c2ccc(C(F)(F)F)cc2)nc2c1CSCC2 [XAV939] (first compound 1.66667 µM, partner dose 2 µM) | 26.1 | 121 | 73.9 | 80.6 | 75.1 | 89 | 66.1 | 88.4 | 44.1 | 142 | 53.5 | 135 | 129 | 130 | 583 | 91.8 | 298 | 40.9
8 | O=C(O)c1ccc(-c2c[nH]c3ncc(-c4ccccc4)cc23)cc1C1CCCC1 + CCN(CC)CCCCNc1ncc2cc(-c3cc(OC)cc(OC)c3)c(NC(=O)NC(C)(C)C)nc2n1 [PD173074] (first compound 0.16 µM, partner dose 0.1 µM) | 152 | 110 | 119 | 184 | 54.1 | 240 | 64 | 59.5 | 84.6 | 93.4 | 128 | 74.3 | 47.1 | 115 | 38.8 | 119 | 98.6 | 109
9 | CCN(CC)CCCCNc1ncc2cc(-c3cc(OC)cc(OC)c3)c(NC(=O)NC(C)(C)C)nc2n1 + O=S(=O)(c1ccccc1)N(CC(F)(F)F)c1ccc(C(O)(C(F)(F)F)C(F)(F)F)cc1 [T0901317] (first compound 0.1 µM, partner dose 1.4 µM) | 40.4 | 94 | 103 | 161 | 62.6 | 33.2 | 84.7 | 72.4 | 36.7 | 85 | 25.3 | 34.8 | 261 | 176 | 29.8 | 16.7 | 24.2 | 64.4
10 | CN(C)S(=O)(=O)c1ccc2c(c1)/C(=C/c1cc3c([nH]1)CCCC3)C(=O)N2 + O=C(O)C(=O)Nc1sc2c(c1C(=O)O)CCNC2 [TCS401] (first compound 0.4 µM, partner dose 1.66667 µM) | 39.1 | 118 | 113 | 65.4 | 98.5 | 113 | 231 | 113 | 44.7 | 60.2 | 143 | 153 | 49.5 | 127 | 41.5 | 52.5 | 111 | 104
11 | Oc1cc(-c2nc(-c3ccccc3)[nH]c2-c2ccncc2)ccc1Cl + O=c1cc(-c2cccc3c2Sc2ccccc2S3)oc(N2CCOCC2)c1 [KU55933] (first compound 0.2 µM, partner dose 1 µM) | 289 | 73.9 | 105 | 63 | 143 | 169 | 57.3 | 196 | 49.1 | 118 | 52.6 | 38.4 | 48.7 | 23.8 | 54.3 | 51.3 | 27.8 | 164
12 | Cn1cc(/C=C2\C(=O)Nc3cccnc32)c2ccccc21 + CCCCCCCCCCCC1=C(O)C(=O)C=C(O)C1=O [Embelin] (first compound 0.4 µM, partner dose 1.2 µM) | 104 | 41.5 | 74 | 91.7 | 225 | 93 | 293 | 74.7 | 73 | 36.7 | 69.2 | 151 | 79.1 | 158 | 348 | 143 | 126 | 303
13 | O=C(Nc1ccccc1)c1cc([N+](=O)[O-])ccc1Cl + COc1ccc(COc2ccc(Cc3cnc(N)nc3N)cc2OC)cc1 [GW2580] (first compound 2 µM, partner dose 1 µM) | 160 | 67.6 | 65 | 151 | 128 | 73.7 | 87 | 87.3 | 81.7 | 83.9 | 72.9 | 100 | 48.2 | 81.7 | 46.1 | 198 | 100 | 117
14 | CCN(CC)CCCCNc1ncc2cc(-c3cc(OC)cc(OC)c3)c(NC(=O)NC(C)(C)C)nc2n1 + Oc1nc(-c2ccc(C(F)(F)F)cc2)nc2c1CSCC2 [XAV939] (first compound 0.1 µM, partner dose 2 µM) | 236 | 150 | 38.7 | 62.9 | 122 | 116 | 96.2 | 82.5 | 66.8 | 44.1 | 89.7 | 84.5 | 25.5 | 121 | 38.5 | 78.4 | 277 | 171
15 | COc1cc2c(Oc3ccc4[nH]c(C)cc4c3F)ncnc2cc1OCCCN1CCCC1 [cediranib] + CC(C)CCN1c2nc(Nc3cc(F)c(O)c(F)c3)ncc2N(C)C(=O)C1C [BID1870] (first compound 0.4 µM, partner dose 0.2 µM) | 124 | 65.6 | 106 | 105 | 115 | 77.2 | 108 | 44.4 | 77.2 | 113 | 121 | 74.4 | 55.4 | 193 | 26.9 | 82.7 | 249 | 45
16 | O=C(O)c1ccc(-c2c[nH]c3ncc(-c4ccccc4)cc23)cc1C1CCCC1 + COc1cc2ncnc(Nc3ccc(Oc4ccccc4)cc3)c2cc1OC [SrcI1] (first compound 0.16 µM, partner dose 2 µM) | 77.4 | 69.4 | 155 | 59.8 | 184 | 129 | 60.2 | 143 | 57.9 | 128 | 59.3 | 150 | 86.4 | 198 | 28.3 | 172 | 144 | 206
17 | CN(C)S(=O)(=O)c1ccc2c(c1)/C(=C/c1cc3c([nH]1)CCCC3)C(=O)N2 + CCc1ccc(CCOc2ccc(CC3SC(=O)NC3=O)cc2)nc1 [pioglitazone] (first compound 0.4 µM, partner dose 2 µM) | 214 | 109 | 121 | 101 | 87.9 | 170 | 57.2 | 99.8 | 43.8 | 143 | 78.8 | 89.4 | 226 | 118 | 40.5 | 56.4 | 37.4 | 120
18 | CN(NC(=O)CC(=O)NN(C)C(=S)c1ccccc1)C(=S)c1ccccc1 + CC(C)CCN1c2nc(Nc3cc(F)c(O)c(F)c3)ncc2N(C)C(=O)C1C [BID1870] (first compound 0.006 µM, partner dose 0.2 µM) | 716 | 233 | 237 | 155 | 362 | 77.4 | 65.7 | 154 | 113 | 146 | 294 | 135 | 52.5 | 124 | 52.3 | 65.1 | 172 | 144
19 | O=C(O)c1ccc(-c2c[nH]c3ncc(-c4ccccc4)cc23)cc1C1CCCC1 + O=c1cc(-c2cccc3c2Sc2ccccc2S3)oc(N2CCOCC2)c1 [KU55933] (first compound 0.16 µM, partner dose 1 µM) | 26.3 | 58.7 | 165 | 125 | 116 | 84.8 | 178 | 157 | 30.2 | 181 | 85 | 118 | 34.5 | 54 | 145 | 29.2 | 49.3 | 162

Taken from above:
O=C(O)C(=O)Nc1sc2c(c1C(=O)O)CCNC2 + O=c1cc(-c2cccc3c2Sc2ccccc2S3)oc(N2CCOCC2)c1 [KU55933] (first compound 1.66667 µM, partner dose 1 µM) | cleaved PARP positive nuclei fraction (IST-MEL1) [%]: 40.3
CN(NC(=O)CC(=O)NN(C)C(=S)c1ccccc1)C(=S)c1ccccc1 + CC(C)CCN1c2nc(Nc3cc(F)c(O)c(F)c3)ncc2N(C)C(=O)C1C [BID1870] (first compound 0.006 µM, partner dose 0.2 µM) | cleaved PARP positive nuclei fraction (RVH-421) [%]: 52.5
